The values below come from PMC7762955, “Antibiotic binding releases autoinhibition of the TipA multidrug-resistance transcriptional regulator” (The Journal of Biological Chemistry, 2020).

By UniProt entry, the sequences of proteins in these tests, tags left out. Where a name states a change or a piece, a line headed by the entry shows the natural chain unless it says otherwise.
UniProt P0A4T9: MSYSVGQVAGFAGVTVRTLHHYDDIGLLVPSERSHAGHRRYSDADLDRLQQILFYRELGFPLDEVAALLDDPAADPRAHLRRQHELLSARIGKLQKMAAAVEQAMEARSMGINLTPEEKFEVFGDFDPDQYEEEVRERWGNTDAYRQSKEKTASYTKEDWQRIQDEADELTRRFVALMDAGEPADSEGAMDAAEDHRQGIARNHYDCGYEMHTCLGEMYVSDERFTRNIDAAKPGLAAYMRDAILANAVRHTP

Residue numbers refer to the chain shown, from its start. For some assays here: Negatives hold for the conditions tested. Tags and fusion partners may be left off the protein sequences shown. For some assays here: Weaker means in comparison with the reference protein, sequence or condition of that experiment. For some assays here: Construct, isoform or probe ends are uncertain for at least one entry. For some assays here: At least one verdict rests on a figure or table, not on a statement of the authors.

Test in all cases: fluorescence polarization
For data set [1], the target named is T1, TipALCC T15C,E134C (Streptomyces lividans) (UniProt P0A4T9).
T1 sequence (looked up, limits assumed): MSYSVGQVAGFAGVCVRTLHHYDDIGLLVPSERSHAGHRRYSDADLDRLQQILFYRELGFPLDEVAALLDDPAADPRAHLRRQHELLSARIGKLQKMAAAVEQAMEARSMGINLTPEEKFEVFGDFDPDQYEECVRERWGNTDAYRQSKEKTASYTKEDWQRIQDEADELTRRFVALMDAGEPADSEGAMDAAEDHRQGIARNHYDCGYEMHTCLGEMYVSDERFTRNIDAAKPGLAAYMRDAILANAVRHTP
The note with it: no thiostrepton; 20 mM Tris-HCl pH 7.5, 200 mM NaCl, 5% (v/v) glycerol, 298 K; 10 nM labeled DNA; recombinant protein; protein details: His6 (pET-28a); label: 5'-carboxyfluorescein.

Data set [2] deals with T2, TipAL (Streptomyces lividans) (UniProt P0A4T9).
T2 sequence (looked up): T1 sequence (looked up, limits assumed) with C15T, C134E
The note with it: no thiostrepton; 20 mM Tris-HCl pH 7.5, 200 mM NaCl, 5% (v/v) glycerol, 298 K; 10 nM labeled DNA; recombinant protein; residues 1-253; protein details: His6 (pET-28a); label: 5'-carboxyfluorescein.

In data set [3] the target is T3, Mta (Bacillus subtilis) (UniProt P71039).
T3 sequence (looked up): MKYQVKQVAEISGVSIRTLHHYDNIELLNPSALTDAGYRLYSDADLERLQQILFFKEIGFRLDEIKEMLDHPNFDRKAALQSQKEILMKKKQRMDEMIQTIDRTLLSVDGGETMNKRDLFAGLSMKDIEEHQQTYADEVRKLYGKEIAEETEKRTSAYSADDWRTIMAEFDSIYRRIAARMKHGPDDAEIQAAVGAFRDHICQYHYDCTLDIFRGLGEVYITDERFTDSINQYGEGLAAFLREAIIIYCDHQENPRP
The note with it: 20 mM Tris-HCl pH 7.5, 200 mM NaCl, 5% (v/v) glycerol, 298 K; 10 nM labeled DNA; recombinant protein; residues 1-257; protein details: His6 (pET-28a); label: 5'-carboxyfluorescein.

Data set [4] addresses T4, MtaH7 (Bacillus subtilis) (UniProt P71039).
T4 sequence (looked up): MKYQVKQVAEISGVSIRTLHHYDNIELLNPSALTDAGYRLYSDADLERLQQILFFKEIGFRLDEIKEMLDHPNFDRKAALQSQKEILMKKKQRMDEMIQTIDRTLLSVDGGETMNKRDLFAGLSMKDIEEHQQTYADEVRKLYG
The note with it: 20 mM Tris-HCl pH 7.5, 200 mM NaCl, 5% (v/v) glycerol, 298 K; 10 nM labeled DNA; recombinant protein; residues 1-144; protein details: His6 (pET-28a); label: 5'-carboxyfluorescein.

The target in data set [5] is T5, MtaN (Bacillus subtilis) (UniProt P71039).
T5 sequence (looked up, limits assumed): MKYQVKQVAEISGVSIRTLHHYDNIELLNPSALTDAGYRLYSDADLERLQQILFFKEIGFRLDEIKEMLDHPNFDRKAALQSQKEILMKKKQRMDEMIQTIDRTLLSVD
The note with it: 20 mM Tris-HCl pH 7.5, 200 mM NaCl, 5% (v/v) glycerol, 298 K; 10 nM labeled DNA; recombinant protein; protein details: His6 (pET-28a); label: 5'-carboxyfluorescein.

In data set [6] the target is T6, SkgAH7 (Caulobacter crescentus) (UniProt B8H172).
T6 sequence (looked up): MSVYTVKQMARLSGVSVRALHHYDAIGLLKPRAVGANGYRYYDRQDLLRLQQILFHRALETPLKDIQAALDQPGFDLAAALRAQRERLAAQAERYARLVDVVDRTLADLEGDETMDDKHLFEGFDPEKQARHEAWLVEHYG
The note with it: 20 mM Tris-HCl pH 7.5, 200 mM NaCl, 5% (v/v) glycerol, 298 K; 10 nM labeled DNA; recombinant protein; residues 1-141; protein details: His6 (pET-28a); label: 5'-carboxyfluorescein.

The target of data set [7] is T7, SkgAN (Caulobacter crescentus) (UniProt B8H172).
T7 sequence (looked up, limits assumed): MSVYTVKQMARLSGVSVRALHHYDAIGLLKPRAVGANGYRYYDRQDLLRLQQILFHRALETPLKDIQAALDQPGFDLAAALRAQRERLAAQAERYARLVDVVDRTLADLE
The note with it: 20 mM Tris-HCl pH 7.5, 200 mM NaCl, 5% (v/v) glycerol, 298 K; 10 nM labeled DNA; recombinant protein; protein details: His6 (pET-28a); label: 5'-carboxyfluorescein.

Data set [8] concerns the target T8, SkgA (Caulobacter crescentus) (UniProt B8H172).
T8 sequence (looked up): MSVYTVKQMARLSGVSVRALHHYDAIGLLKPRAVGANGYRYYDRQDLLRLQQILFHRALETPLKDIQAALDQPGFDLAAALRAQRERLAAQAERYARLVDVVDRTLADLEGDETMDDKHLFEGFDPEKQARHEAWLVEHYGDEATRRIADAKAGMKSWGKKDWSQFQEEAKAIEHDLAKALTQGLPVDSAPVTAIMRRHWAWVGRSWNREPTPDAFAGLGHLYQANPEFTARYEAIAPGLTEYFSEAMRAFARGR
The note with it: 20 mM Tris-HCl pH 7.5, 200 mM NaCl, 5% (v/v) glycerol, 298 K; 10 nM labeled DNA; recombinant protein; residues 1-255; protein details: His6 (pET-28a); label: 5'-carboxyfluorescein.

Turning to “TTGCACCTCACGTCACGTGAGGAGGC (double strand) [ptipA]”, the binding result in data set [1] is listed as “no binding”. The dissociation constant (Kd) in data set [2] amounted to 0.38 µM.
Regarding “TTGACCCTAACGTTGCGTGATTGTTT (double strand) [pmta]”, the figures for the binding result in data set [3], in data set [4] and in data set [5] were “binds more weakly”, “binds more weakly” and “binds”, respectively.
Take “TTGACCCTCACGCCACGTCAGACCTG (double strand) [pskgA]”: the binding result in data set [6] is listed as “binds more weakly”; in data set [7], “binds”; in data set [8] it was “binds more weakly”.
